# In the supplement of paper PMC11348887:
# Structures can show the parent of a compound that is named as a salt. Some of the results follow. Most values lie at the level of the controls, where differences are scatter.
# Test system: hPSC-derived cortical neurons (WA09)
# Experiment: nucleus area z-score vs screen plate; higher = larger nuclei (more mature)
# Settings: 5 µM; treatment: days 7-14 after plating, readout day 21
row,Structure (SMILES),nucleus area z-score
1,Cc1c(F)cc(C(=O)NC2CC2)cc1-c1ccc(C(=O)NCC(C)(C)C)cn1,2.56
2,O=C(O)CCC(=O)Nc1ccc(S(=O)(=O)Nc2nccs2)cc1 [Succinylsulfathiazole],0.171
3,Cc1c(-c2ccccc2)oc2c(C(=O)OCCN3CCCCC3)cccc2c1=O [Flavoxate HCl],-0.585
4,O=c1[nH]c(=O)n([C@H]2C[C@H](O)[C@@H](CO)O2)cc1I [Idoxuridine],-1.23
5,CN1C(=O)C(Cc2c[nH]c3ccccc23)NC1=S (centres undefined) [Necrostatin-1],0.0777
6,CC(=O)OCC(=O)[C@H]1CC[C@H]2[C@@H]3CCC4=CC(=O)CC[C@]4(C)[C@H]3CC[C@]12C [Deoxycorticosterone acetate],1.05
7,CCCc1cc(C)[nH]c(=O)c1CNC(=O)c1cc(-c2ccc(N3CCN(C(C)C)CC3)nc2)cc2c1cnn2C(C)C,0.498
8,COC(=O)C1=CO[C@@H](O[C@@H]2O[C@H](CO)[C@@H](O)[C@H](O)[C@H]2O)[C@@H]2C(CO)=CC[C@H]12 [Geniposide],-0.224
9,CC1(C)S[C@@H]2[C@H](NC(=O)[C@H](NC(=O)N3CCNC3=O)c3ccccc3)C(=O)N2[C@H]1C(=O)O [Azlocillin sodium salt],-0.7
10,NC(=O)c1noc([C@H](CCCC2CCCCC2)CC(=O)NO)n1,0.46
11,NC(=O)C(c1ccccc1)(c1ccccc1)[C@@H]1CCN(CCc2ccc3c(c2)CCO3)C1 [Darifenacin HBr],0.00139
12,CC[C@H]1OC(=O)C[C@@H](O)[C@H](C)[C@@H](O[C@@H]2O[C@H](C)[C@@H](O[C@H]3C[C@@](C)(O)[C@@H](O)[C@H](C)O3)[C@H](N(C)C)[C@H]2O)[C@@H](CC=O)C[C@@H](C)C(=O)/C=C/C(C)=C/[C@@H]1CO[C@@H]1O[C@H](C)[C@@H](O)[C@@H](OC)[C@H]1OC [Tylosin tartrate],0.264
13,Cc1cc(Cl)ccc1OCCCC(=O)NO [Droxinostat],-0.51
14,CCOc1cc(C(=O)N2CCC(N3CCN(C)CC3)CC2)ccc1Nc1ncc2c(n1)N(C1CCCC1)c1ccccc1C(=O)N2C,-13
15,CN(C)C/C=C/C(=O)Nc1cc2c(Nc3ccc(F)c(Cl)c3)ncnc2cc1O[C@H]1CCOC1 [Afatinib (BIBW2992)],-5.28
16,CC(C)(C)c1cc(C(C)(C)C)c(NC(=O)c2c[nH]c3ccccc3c2=O)cc1O [Ivacaftor (VX-770)],0.327
17,CCc1cccc(CC)c1NC(=O)N1Cc2[nH]nc(NC(=O)c3ccc(N4CCN(C)CC4)cc3)c2C1,0.521
18,O=c1ncn2nc(Sc3ccc(F)cc3F)ccc2c1-c1c(Cl)cccc1Cl,1.17
19,CCOP(=O)(OCC)C(=Cc1cc(C(C)(C)C)c(O)c(C(C)(C)C)c1)P(=O)(OCC)OCC,-0.794
20,CCN(CC)C(=O)C1(c2ccccc2)CC1CN (centres undefined) [Milnacipran HCl],0.791

# Part of the list above, with tabs:
row	Structure (SMILES)	nucleus area z-score
7	CCCc1cc(C)[nH]c(=O)c1CNC(=O)c1cc(-c2ccc(N3CCN(C(C)C)CC3)nc2)cc2c1cnn2C(C)C	0.498
8	COC(=O)C1=CO[C@@H](O[C@@H]2O[C@H](CO)[C@@H](O)[C@H](O)[C@H]2O)[C@@H]2C(CO)=CC[C@H]12 [Geniposide]	-0.224

# Continuation.

row,Structure (SMILES),nucleus area z-score
1,CCCCCCCCc1ccc(CCC(N)(CO)CO)cc1 [Fingolimod (FTY720) HCl],-13.1
2,O=C(O)[C@]1(Cc2cccc(Nc3nccs3)n2)CC[C@@H](Oc2cccc(Cl)c2F)CC1,-0.0991
3,Cc1cc(F)c(C(=O)Nc2cccc(-c3nncn3C(C)C)n2)cc1-n1cnc(C2CC2)c1 [Selonsertib (GS-4997)],0.0333
4,N=C(N)Nc1ccc(C(=O)Oc2ccc3cc(C(=N)N)ccc3c2)cc1 [Nafamostat Mesylate],0.869
5,O=c1ccn([C@@H]2O[C@H](CO)[C@@H](O)[C@H]2O)c(=O)[nH]1 [Uridine],0.263
6,O=C(Nc1cccc(C(F)(F)F)c1)Nc1cc(S(=O)(=O)NC2CC2)ccc1-c1ccsc1,1.09
7,NCCc1c[nH]cn1 [Histamine 2HCl],-0.532
8,COc1ccc(S(=O)(=O)N(CCO)c2ccccc2CN(C)C/C=C/c2ccc(Cl)cc2)cc1 [KN-93 Phosphate],-3.17
9,Cc1ccc(Sc2cncc3sc(C(N)=O)cc23)cc1,1.3
10,O=C1NCC2(CCN(CCc3ccccc3)CC2)O1 [Fenspiride HCl],0.255
11,CCCCCCc1ccc(O)cc1O [Hexylresorcinol],0.182
12,O=C(c1cc(Cc2n[nH]c(=O)c3ccccc23)ccc1F)N1CCN(C(=O)C2CC2)CC1,-0.222
13,COC(=O)C1=C(C)NC(C)=C(C(=O)OC(C)(C)CN(C)CCC(c2ccccc2)c2ccccc2)C1c1cccc([N+](=O)[O-])c1 (centres undefined) [Lercanidipine hydrochloride],-16.4
14,COc1cccc(-c2cc(F)ccc2C2Cc3nc(N)nc(C)c3C(=O)N2)n1 (centres undefined),-7.12
15,COc1cccc(NC(=O)/C=C/c2ccc(Cl)cc2)c1,0.232
16,CCC1C/C(=C\c2cccnc2)C(=O)/C(=C/c2cccnc2)C1 (centres undefined),-16.9
17,CC[N+](CC)(CC)CCOc1cccc(OCC[N+](CC)(CC)CC)c1OCC[N+](CC)(CC)CC [Gallamine Triethiodide],-0.713
18,CC[C@@H]1C(=O)N(C)c2cnc(Nc3ccc(C(=O)NC4CCN(C)CC4)cc3OC)nc2N1C1CCCC1,-5.07
19,Nc1ccc(S(=O)(=O)Nc2ccccn2)cc1 [Sulfapyridine],-0.384
